Test: LC-MS metabolomics assay of FOCM metabolite plasma levels, CRC patients vs healthy subjects
Design: species or system human
Conditions: Table 2

SMILES	circulating concentrations in CRC patients compared to healthy subjects
Cc1cc2nc3c(=O)[nH]c(=O)nc-3n(C[C@H](O)[C@H](O)[C@H](O)COP(=O)(O)O)c2cc1C [Flavin mononucleotide]	significantly different
Cc1ncc(CO)c(CO)c1O [Pyridoxine]	elevated

Reference: US20190101539A1, “METABOLOMIC BASED BIOMARKERS FOR COLON CANCER DETECTION” (UNIVERSITY OF SOUTHERN CALIFORNIA, priority 2015, published 2019)
